Experimental data reported in PMC7324543, “Rapid and sensitive large-scale screening of low affinity extracellular receptor protein interactions by using reaction induced inhibition of Gaussia luciferase” (Scientific Reports, 2020).
These are yes or no findings as the source states them, for the method shown. Some binding calls cover weakened binding; strength is not graded here.

B1: zebrafish JamB1 ectodomain (domain or fragment, UniProt A0A0R4IGV4 19-226)
chain: VTVSSRNPKVEVHEFSDAELSCEFKTEKDTNPRIEWKRKDKEKDVSFVYYGERFVGPFQDRADIEGATVRLRRVTQADAGEYRCEVSAPSDSISLGETNVTLRVLVPPQTPSCDVPSSALTGSQVELRCRDRHSIPPAVYTWYKDNRALPIRHPNATYTVNEFTGVLIPQSHYNPGTVCQHCMYHPNYHIPNTQLTTTFQTHDLNVAA
modifications: bait forms: biotin on a specific lysine of the C-terminal BirA acceptor peptide
B2: zebrafish JamC1 ectodomain (domain or fragment, UniProt A3KPA0 24-235)
chain: VLLKSTNSKPWVNEFESIELSCMIESITTTKPRIEWKKIKNGDPSYVYFDNQISGDLERRAKIREPATLVILNATRSDSADYRCEVTAPNDQKSFDEILISLTVRVKPVVPRCSVPKSIPVGKPAELHCLEDEGYPKSQYQWFRNKEEIPLDPKSSPKFFNSTYTLDGEMGTLKFSAVRKEDAGEYYCRAKNEAGISECGPQMMEVYDINIA
modifications: bait forms: biotin on a specific lysine of the C-terminal BirA acceptor peptide

What was measured:
[1] = target: T1, zebrafish JamC1 ectodomain (zebrafish) (UniProt A3KPA0); assay: ELISA; AVEXIS, Jam benchmark (Fig. 4c): Gaussia luciferase pentamer prey at 100 pM on 1 pmol monomeric mono-biotinylated bait on streptavidin-coated plate; luminescence; both purified
T1 sequence (chain, bait forms, biotin on a specific lysine of the C-terminal BirA acceptor peptide): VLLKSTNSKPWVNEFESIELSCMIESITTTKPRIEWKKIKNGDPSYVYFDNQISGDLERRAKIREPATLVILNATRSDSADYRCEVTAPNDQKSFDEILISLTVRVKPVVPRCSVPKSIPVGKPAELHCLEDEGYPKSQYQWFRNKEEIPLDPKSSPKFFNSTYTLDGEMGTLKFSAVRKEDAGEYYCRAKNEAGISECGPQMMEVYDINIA

[2] = target: T1, zebrafish JamC1 ectodomain (zebrafish); assay: ELISA; AVEXIS, Jam benchmark (Fig. 4b): beta-lactamase pentamer prey at 100 pM on 1 pmol monomeric mono-biotinylated bait on streptavidin-coated plate; nitrocefin; both purified
[3] = target: T1, zebrafish JamC1 ectodomain (zebrafish); assay: ELISA; AVEXIS, Jam benchmark (Fig. 4e): the same biotinylated Gaussia luciferase pentamer preparation as bait (inactivated with coelenterazine, free biotin wash to block remaining sites) and as prey; luminescence; both purified
[4] = target: T1, zebrafish JamC1 ectodomain (zebrafish); assay: ELISA; AVEXIS, Jam benchmark (Fig. 4d): non-biotinylated Gaussia luciferase pentamer prey at 100 pM on 10 fmoles biotinylated Gaussia luciferase pentamer bait inactivated with excess coelenterazine; luminescence; both purified

| Binder | binding [1] | binding [2] | binding [3] | binding [4] |
| --- | --- | --- | --- | --- |
| B1 | binds | binds | binds | binds |
| B2 | binds weakly | – | – | – |
